Data as given in patent US20140356285A1, “COMPOSITIONS AND METHODS RELATED TO TISSUE TARGETING” (THE BOARD OF REGENTS OF THE UNIVERSITY OF TEXAS SYSTEM, priority 2011, published 2014).
Results are given in words; binding and its absence hold for the method and conditions named. Some entries that bind do so weakly or less than the wild type.

Chains of the proteins cited; added tags and fusions are not shown. Residues count along the entry.
UniProt Q15109, residues 23-342: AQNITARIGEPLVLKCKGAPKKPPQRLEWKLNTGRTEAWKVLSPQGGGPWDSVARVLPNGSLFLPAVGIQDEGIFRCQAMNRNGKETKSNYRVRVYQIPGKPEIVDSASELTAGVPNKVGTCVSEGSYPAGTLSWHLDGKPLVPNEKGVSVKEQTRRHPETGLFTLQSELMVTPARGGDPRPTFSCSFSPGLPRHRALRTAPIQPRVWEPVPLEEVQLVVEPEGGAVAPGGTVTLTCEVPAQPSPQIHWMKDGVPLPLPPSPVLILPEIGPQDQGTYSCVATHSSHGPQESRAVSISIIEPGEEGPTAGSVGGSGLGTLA

Legend:
[1] = target: T1, human leukocyte proteinase-3 (PR-3) (human, UniProt P24158 28-248); experiment: ELISA on immobilized PR-3, RAGE-Fc titrated
T1 construct: In the ELISAs the PR-3 was bought (Sigma); also called active PR-3; endogenous PR-3
T1 chain: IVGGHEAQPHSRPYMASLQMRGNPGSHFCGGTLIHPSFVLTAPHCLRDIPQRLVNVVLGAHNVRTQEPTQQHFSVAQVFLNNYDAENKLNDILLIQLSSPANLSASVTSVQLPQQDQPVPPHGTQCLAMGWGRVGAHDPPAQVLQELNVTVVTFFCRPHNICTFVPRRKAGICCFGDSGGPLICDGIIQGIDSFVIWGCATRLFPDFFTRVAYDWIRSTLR

[2] = target: T1, human leukocyte proteinase-3 (PR-3); experiment: ELISA on immobilized PR-3

RAGE-Fc (from UniProt Q15109 23-342) (Fc fusion)
binding [1]: binds | binding [2]: binds
